# Data as given in PubChem BioAssay AID1259308 (NCATS, 2017)
# Aim: 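Knock-downs that increase output of a recombinant reporter protein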 (primary screen)
# System: human HEK293 embryonic kidney cells stably expressing firefly luciferase (HEK-CMV-Luc2-Hygro)
# Reagents: single siRNA against human genes, 0.8 pmol siRNA per well
# Timing: 72 h
# Measured: 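Luciferase light (ONE-Glo) measured on one replicate plate set and viability (CellTiter-Glo) on the other, scaled to a negative control siRNA, with robust z-scores and luciferase per cell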
# Direction: total luciferase, z-score and total luciferase, % of control: higher = more reporter protein produced
# Active means: 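An siRNA counts as active if its total luciferase robust z-score exceeds 3; genes with two or more such siRNAs out of three were retested with fresh siRNAs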
# Calls: active = raised luciferase; inactive = no rise
# Shown is an unselected part of about 59,000 reagents tested. About 1,510 of them (2.6%) were called active. 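Calls use total luciferase alone and ignore viability, so some active siRNAs may act by altering cell number.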 Reagents against one gene are numbered here. Not all columns of the deposit are shown.
The opening 2 entries, to show the layout:
gene,reagent no.,"total luciferase, z-score","total luciferase, % of control",outcome
SPAG16,1,-1.07,60.6,inactive
SPAG16,2,-1.41,53.8,inactive

Main list, repeating the preview:
gene,reagent no.,"total luciferase, z-score","total luciferase, % of control",outcome
SPAG16,1,-1.07,60.6,inactive
SPAG16,2,-1.41,53.8,inactive
SPAG16,3,-0.12,79.5,inactive
LOC100289470,1,-0.831,65.4,inactive
LOC100289470,2,-0.446,73,inactive
LOC100289470,3,-1.37,54.7,inactive
SPATA31F2P,1,0.0827,83.5,inactive
SPATA31F2P,2,-0.943,63.1,inactive
SPATA31F2P,3,0.542,92.7,inactive
ABCC6P1,1,-0.518,71.6,inactive
ABCC6P1,2,1.82,118,inactive
ABCC6P1,3,2.47,131,inactive
NTN3,1,-1.72,47.8,inactive
NTN3,2,3.33,148,active
NTN3,3,-2.11,39.9,inactive
LRRFIP1,1,2.29,127,inactive
LRRFIP1,2,-1.49,52.2,inactive
LRRFIP1,3,-0.74,67.2,inactive
EYA2,1,0.15,84.9,inactive
EYA2,2,-0.22,77.5,inactive
EYA2,3,0.347,88.8,inactive
PPP1R10,1,-1.74,47.3,inactive
PPP1R10,2,-1.98,42.4,inactive
PPP1R10,3,-1.75,47.1,inactive
CNMD,1,-0.248,76.9,inactive
CNMD,2,0.769,97.2,inactive
CNMD,3,-1.66,48.9,inactive
MRAP,1,0.361,89.1,inactive
MRAP,2,0.338,88.6,inactive
MRAP,3,1.43,110,inactive
CALM2,1,-0.449,73,inactive
CALM2,2,1.12,104,inactive
CALM2,3,0.903,99.8,inactive
ALDH1A2,1,-2.45,33.3,inactive
ALDH1A2,2,-0.283,76.3,inactive
ALDH1A2,3,-0.0367,81.2,inactive
CT62,1,1.29,108,inactive
CT62,2,-0.46,72.7,inactive
CT62,3,-0.657,68.8,inactive
